# Experiment: in vitro
# Details: African green monkey
compound,measurement,value
"CCC(CC)COC(=O)[C@H](C)N[P@](=O)(OC[C@H]1O[C@@](C#N)(c2ccc3c(N)ncnn23)[C@H](O)[C@@H]1O)Oc1ccccc1 [Remdesivir, remdesivir]",CC50,17.6 µM

# From paper PMC7940615 (Scientific Reports, 2021)
